From US12655184B2, “Labyrinthin-based peptides for cancer immunotherapies and uses thereof” (LABYRX IMMUNOLOGIC THERAPEUTICS (USA) LIMITED, priority 2018, dated 2026)
Values joined by “and” are separate entries in the source; they are usually repeats but may differ in a detail not shown here. Equal values may be shown once. Part of at least one peptide drawing is inferred or uncertain, most often the ends. Ends that are not written are not given here.

Assay: production of antibodies after peptide injection, positive clones/hybridomas
Type: in vivo
Conditions: injection of one peptide per treatment group, 12 Balb/c mice in 4 groups

Row | Sequence | Positive clones/hybridomas
1 | NEGIEITEVTAPPEDNPVEDSQ [SEQ ID NO: 31] | 8 and 10
2 | DSQVIVEEVSIFPVEEQQEVPPD [SEQ ID NO: 32] | 3
3 | GEDLQQEDGPTGEPQQEDDEFL [SEQ ID NO: 29] | 3
